Data source: PubChem BioAssay AID1259308 (NCATS, 2017)
Assay: 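Genes whose loss raises luciferase production in HEK293 cells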 (primary screen). Cells: human HEK293 embryonic kidney cells stably expressing firefly luciferase (HEK-CMV-Luc2-Hygro). Reagent: single siRNA against human genes, 0.8 pmol siRNA per well. Duration: 72 h. Measured: 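Luciferase light (ONE-Glo) measured on one replicate plate set and viability (CellTiter-Glo) on the other, scaled to a negative control siRNA, with robust z-scores and luciferase per cell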. Reading the numbers: total luciferase, z-score: higher = more reporter protein produced. Call rule: 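Active when the median/MAD z-score for overall luciferase is greater than 3; a gene was taken forward for validation with new siRNAs if at least two of its three siRNAs passed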. Calls: active = raised luciferase; inactive = no rise.
In all, the deposit lists about 59,000 reagents; shown is an unselected part. About 1,510 of all reagents (2.6%) were called active. 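Calls use total luciferase alone and ignore viability, so some active siRNAs may act by altering cell number.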 Reagents against one gene are numbered here. Not all columns of the deposit are shown.

Silencing of TMED4 (transmembrane p24 trafficking protein 4) #1 resulted in: total luciferase, z-score -1.01; inactive. TMED4 (transmembrane p24 trafficking protein 4) #2 showed total luciferase, z-score -0.144; inactive. Depletion of TMED4 (transmembrane p24 trafficking protein 4) #3 gave: total luciferase, z-score 1.15; inactive. SLC25A12 #1 gave total luciferase, z-score 0.684; inactive. SLC25A12 #2 gave total luciferase, z-score -0.322; inactive. SLC25A12 #3 scored total luciferase, z-score 0.698; inactive.

HDAC4 (histone deacetylase 4) #1 showed total luciferase, z-score -1.36; inactive. For HDAC4 (histone deacetylase 4) #2, the values are total luciferase, z-score 0.866; inactive. After knock-down of HDAC4 (histone deacetylase 4) #3, the record shows total luciferase, z-score -2.19; inactive. For HDAC4 (histone deacetylase 4) #4 the deposit lists total luciferase, z-score -0.33; inactive. With knock-down of HDAC4 (histone deacetylase 4) #5, the record shows total luciferase, z-score -0.38; inactive. Knock-down of HDAC4 (histone deacetylase 4) #6 resulted in: total luciferase, z-score -0.329; inactive.

After knock-down of SMYD2 (SET and MYND domain containing 2) #1, the record shows total luciferase, z-score -0.6; inactive. SMYD2 (SET and MYND domain containing 2) #2 scored total luciferase, z-score 0.64; inactive. Knock-down of SMYD2 (SET and MYND domain containing 2) #3 resulted in: total luciferase, z-score -0.556; inactive. Depletion of NOL9 (nucleolar protein 9) #1 came out at: total luciferase, z-score 1.43; inactive. Against NOL9 (nucleolar protein 9) #2, the values are total luciferase, z-score 0.11; inactive. Against NOL9 (nucleolar protein 9) #3, the values are total luciferase, z-score 0.51; inactive.

After knock-down of XKR4 (XK related 4) #1, the screen gave total luciferase, z-score -0.606; inactive. After knock-down of XKR4 (XK related 4) #2, the record shows total luciferase, z-score -0.274; inactive. With knock-down of XKR4 (XK related 4) #3 the results were total luciferase, z-score -0.432; inactive. Depletion of KDF1 (keratinocyte differentiation factor 1) #1 gave: total luciferase, z-score -0.41; inactive. For KDF1 (keratinocyte differentiation factor 1) #2, the values are total luciferase, z-score 1.44; inactive. Knock-down of KDF1 (keratinocyte differentiation factor 1) #3 resulted in: total luciferase, z-score -0.61; inactive.

Against CAVIN2 (caveolae associated protein 2) #1, the entry reads total luciferase, z-score 0.422; inactive. For CAVIN2 (caveolae associated protein 2) #2 the deposit lists total luciferase, z-score -1.07; inactive. For CAVIN2 (caveolae associated protein 2) #3, the entry reads total luciferase, z-score -0.271; inactive. For MYH9 (myosin heavy chain 9) #1 the deposit lists total luciferase, z-score -2.16; inactive. Against MYH9 (myosin heavy chain 9) #2 the deposit lists total luciferase, z-score -0.379; inactive. With knock-down of MYH9 (myosin heavy chain 9) #3, the screen gave total luciferase, z-score -0.201; inactive.

Depletion of TSN (translin) #1 resulted in: total luciferase, z-score 2.87; inactive. For TSN (translin) #2 the deposit lists total luciferase, z-score 0.672; inactive. With knock-down of TSN (translin) #3, the screen gave total luciferase, z-score -0.438; inactive.

In a second layout: 3 of the entries above
CAVIN2 (caveolae associated protein 2) #3
- total luciferase, z-score: -0.271
- outcome: inactive

MYH9 (myosin heavy chain 9) #1
- total luciferase, z-score: -2.16
- outcome: inactive

MYH9 (myosin heavy chain 9) #2
- total luciferase, z-score: -0.379
- outcome: inactive
